In article doi:10.1101/823146 (bioRxiv, 2019) one finds binding data, which are given here for 1 molecule.

The target in the assay is T1, OmpA (E. coli (endogenous in E. coli cells)) (UniProt P0A910).
T1 sequence: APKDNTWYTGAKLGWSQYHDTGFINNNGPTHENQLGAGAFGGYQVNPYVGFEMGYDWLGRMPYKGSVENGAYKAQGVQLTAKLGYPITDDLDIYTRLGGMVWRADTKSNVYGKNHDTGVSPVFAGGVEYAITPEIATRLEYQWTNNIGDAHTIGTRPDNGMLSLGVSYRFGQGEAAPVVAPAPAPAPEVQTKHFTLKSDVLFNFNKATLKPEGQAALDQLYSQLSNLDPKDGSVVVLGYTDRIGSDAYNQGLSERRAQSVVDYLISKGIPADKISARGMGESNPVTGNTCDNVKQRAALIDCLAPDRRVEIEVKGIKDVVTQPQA
Description: cross-linking.

These are yes or no findings as the source states them, for the method shown. Binding seen in cells or lysates may run through a third protein. Some entries that bind do so weakly or less than the wild type.

B1: RcsF (endogenous) (protein, UniProt P69411 16-134)
chain: CSMLSRSPVEPVQSTAPQPKAEPAKPKAPRATPVRIYTNAEELVGKPFRDLGEVSGDSCQASNQDSPPSIPTARKRMQINASKMKANAVLLHSCEVTSGTPGCYRQAVCIGSALNITAK
modifications: lipid anchor (outer membrane lipoprotein)
On to B1, for which the binding entry is “binds”.
